These are yes or no findings as the source states them, for the method shown. Some entries that bind do so weakly or less than the wild type. For part of these data: Sequences can lack the tags named with a protein.
Experiments:
[1] = molecular target: CBL tyrosine kinase binding domain (TKBD), residues 25-357 (UniProt P22681); assay: ITC
[2] = molecular target: CBL (47-357), co-expressed from MCS2 of pETDuet-1 (UniProt P22681); assay: SEC

The chains behind the UniProt entries cited, without tags or fusion partners. Residues count along the entry.
UniProt P22681, 25-357: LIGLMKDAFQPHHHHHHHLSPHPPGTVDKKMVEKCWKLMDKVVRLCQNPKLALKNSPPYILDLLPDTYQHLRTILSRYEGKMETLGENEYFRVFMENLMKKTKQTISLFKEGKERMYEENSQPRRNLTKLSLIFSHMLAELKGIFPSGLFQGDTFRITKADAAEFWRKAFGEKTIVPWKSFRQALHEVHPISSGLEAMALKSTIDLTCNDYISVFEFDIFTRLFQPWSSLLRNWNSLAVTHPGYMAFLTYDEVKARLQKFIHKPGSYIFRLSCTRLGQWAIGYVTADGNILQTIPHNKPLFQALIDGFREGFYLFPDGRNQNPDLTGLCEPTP
UniProt P22681, 47-357: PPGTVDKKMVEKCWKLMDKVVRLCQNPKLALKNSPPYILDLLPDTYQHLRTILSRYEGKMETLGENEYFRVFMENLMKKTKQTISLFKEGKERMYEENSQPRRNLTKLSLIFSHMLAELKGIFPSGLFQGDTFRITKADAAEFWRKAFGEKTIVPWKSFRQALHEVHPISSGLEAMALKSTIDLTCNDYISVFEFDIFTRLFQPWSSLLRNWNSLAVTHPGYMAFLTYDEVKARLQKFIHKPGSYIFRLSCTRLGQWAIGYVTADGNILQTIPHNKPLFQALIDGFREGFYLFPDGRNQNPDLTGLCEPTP

| Binder | binding [1] | binding [2] |
| --- | --- | --- |
| TLNSDGYTPEPA (phosphotyrosine at position 7 of the peptide (pY)) [phosphorylated Zap70 kinase peptide (TLNSDGpYTPEPA)] | binds |  |
| VIEDNEYTAR (phosphotyrosine at position 7 of the peptide (pY)) [phosphorylated kinase activation loop peptide of Lyn kinase (VIEDNEpYTAR)] | binds |  |
| human SLAP2 residues 29-261, Trx-His tag removed by thrombin (domain or fragment, UniProt Q9H6Q3 29-261) EAERSKATAVALGSFPAGGPAELSLRLGEPLTIVSEDGDWWTVLSEVSGREYNIPSVHVAKVSHGWLYEGLSREKAEELLLLPGNPGGAFLIRESQTRRGSYSLSVRLSRPASWDRIRHYRIHCLDNGWLYISPRLTFPSLQALVDHYSELADDICCLLKEPCVLQRAGPLPGKDIPLPVTVQRTPLNWKELDSSLLFSEAATGEESLLSEGLRESLSFYISLNDEAVSLDDA |  | binds |

Source: doi:10.1101/2020.10.08.331397
